# Laboratory results taken from PMC9046089, “CCNE1 amplification is synthetic lethal with PKMYT1 kinase inhibition” (Nature, 2022).
# Values joined by “and” are separate entries in the source; they are usually repeats but may differ in a detail not shown here. Equal values may be shown once. The source gives many values for each of these; only a part stands here.
# Tests used:
# Assay type in all cases: in vivo, mouse
# [1] = Body weight change of tumour-bearing mice; conditions: for Change in body weight (%) OVCAR3: OVCAR3 tumour-bearing mice, 20mg/kg (BID)
# Protocol: (§1) Gemcitabine was administered once weekly intraperitoneally in saline. Animals were monitored for tumour volume, clinical signs and body weight three times per week. Tumour volume was measured using a digital calliper and calculated using the formula 0.52 × L × W^2, where L is length and W is width. Response to treatment was evaluated for tumour growth inhibition (% TGI). […] TV is tumour volume and subscripts indicate treatment group and time of sampling. According to NIACC and IACUC approved animal protocols, mice were euthanized as soon as their tumour volume exceeded 2,000 mm^3. Change in body weight (BW) was calculated using the formula: %BW change = (BWlast − BWday0/BWday0) × 100. BW change was calculated based on individual body weight changes relative to day 0. Statistical significance relative to vehicle control or other test groups was established by one-way ANOVA followed by Fisher’s least significant difference test for multiple groups and unpaired t-test for two group comparisons (GraphPad Prism v9.0). Investigators were not blinded during data collection and analysis.
# [2] = system: OVCAR3 xenografts; assay: Cell line-derived xenograft, tumour growth
# Protocol: (§2) HCC1569, OVCAR3 and SUM149PT cells were implanted at 5 × 10^6 cells per mouse into the right flanks of female CB17-SCID, SCID-beige and NOD-SCID mice respectively (5–7 weeks old; Charles River), in 1:1 Matrigel:medium (Matrigel Corning, cat. no. CB35248).
# as §1
# [3] = system: SUM149PT xenografts; assay: Cell line-derived xenograft, tumour growth; conditions: individual animals
# Protocol: as §2, §1
structure (smiles),measurement,setting,value
Cc1cc2c(C(N)=O)c(N)n(-c3c(C)ccc(O)c3C)c2nc1C [RP-6306],Change in body weight (%) OVCAR3,"[1]; time 11, individual animals, 20 mg/kg",-3.977% and -0.9901% and -2.857% and -1.818% and 9.424% and 0.4739% and 0.578% and -4.63%
same,Change in body weight (%) OVCAR3,"[1]; time 21, individual animals, 20 mg/kg",-2.273% and -4.9505% and -4.7619% and -5.909% and 9.424% and -2.37% and -5.202% and -10.1852%
same,Change in body weight (%) OVCAR3,"[1]; time 23, individual animals, 20 mg/kg",-6.25% and -12.3762% and -7.143% and -10.9091% and 9.424% and -11.3744% and -8.671% and -7.87%
same,Change in body weight (%) PA1443 PDX,"[1]; 7.5mg/kg (BID), time 0, individual mice",0%
same,Change in body weight (%) PA1443 PDX,"[1]; 7.5mg/kg (BID), time 3, individual mice, 7.5 mg/kg",-3.162% and -3.629% and -4.104% and -2.6616% and -3.061% and -2.39% and 1.667% and 0.3906%
same,Change in body weight (%) PA1443 PDX,"[1]; 7.5mg/kg (BID), time 6, individual mice, 7.5 mg/kg",-3.953% and -2.016% and -1.493% and -5.703% and -2.721% and -2.39% and 1.25% and 1.172%
same,Change in body weight (%) PA1443 PDX,"[1]; 7.5mg/kg (BID), time 9, individual mice, 7.5 mg/kg",-1.976% and -3.226% and -1.493% and -7.985% and 0.3401% and -0.7968% and 1.25% and 2.344%
same,Change in body weight (%) PA1443 PDX,"[1]; 7.5mg/kg (BID), time 13, individual mice, 7.5 mg/kg",-1.581% and -4.032% and -4.478% and -4.943% and -2.041% and -3.187% and -0.4167% and -1.5625%
same,Change in body weight (%) PA1443 PDX,"[1]; 7.5mg/kg (BID), time 27, individual mice, 7.5 mg/kg",-0.3953% and -2.016% and -2.985% and -4.183% and -2.041% and -3.984% and -0.8333% and 0%
same,Change in body weight (%) PA1443 PDX,"[1]; 7.5mg/kg (BID), time 30, individual mice, 7.5 mg/kg",0.7905% and -0.8065% and -1.1194% and -3.042% and -1.361% and -4.382% and -0.8333% and 1.172%
same,Change in body weight (%) PA1443 PDX,"[1]; 7.5mg/kg (BID), time 34, individual mice, 7.5 mg/kg",1.581% and -1.21% and 1.1194% and -2.6616% and -2.041% and -3.586% and 2.917% and 1.5625%
same,Change in body weight (%) PA1443 PDX,"[1]; 7.5mg/kg (BID), time 37, individual mice, 7.5 mg/kg",1.186% and -2.823% and -1.866% and -4.183% and -5.102% and -3.187% and -1.25% and 1.5625%
same,Change in body weight (%) PA1443 PDX,"[1]; 7.5mg/kg (BID), time 41, individual mice, 7.5 mg/kg",1.581% and -1.21% and 0.7463% and -3.042% and -3.061% and -3.984% and -0.8333% and 4.297%
same,Change in body weight (%) PA1443 PDX,"[1]; 7.5mg/kg (BID), time 44, individual mice, 7.5 mg/kg",-1.976% and -4.839% and -2.239% and -4.563% and -2.041% and -5.179% and 0% and 1.5625%
same,Change in body weight (%) PA1443 PDX,"[1]; 7.5mg/kg (BID), time 48, individual mice, 7.5 mg/kg",-0.3953% and -1.6129% and 0.3731% and -2.6616% and -4.7619% and -4.781% and -1.25% and -1.5625%
same,Change in body weight (%) PA1443 PDX,"[1]; 20 mg/kg (BID), time 0, individual mice",0%
same,Change in body weight (%) PA1443 PDX,"[1]; 20 mg/kg (BID), time 3, individual mice, 20 mg/kg",-3.6% and -2.672% and -1.21% and -7.317% and 0% and -0.3759% and 0.7692% and -1.1194%
same,Change in body weight (%) PA1443 PDX,"[1]; 20 mg/kg (BID), time 6, individual mice, 20 mg/kg",-8.8% and -3.053% and -1.6129% and -9.7561% and -4.981% and -6.015% and -5.385% and -3.358%
same,Change in body weight (%) PA1443 PDX,"[1]; 20 mg/kg (BID), time 9, individual mice, 20 mg/kg",-7.6% and 0.3817% and -0.8065% and -8.13% and -11.4943% and -10.5263% and -10% and -2.612%
same,Change in body weight (%) PA1443 PDX,"[1]; 20 mg/kg (BID), time 13, individual mice, 20 mg/kg",-4% and 0.7634% and -2.823% and -9.35% and -5.364% and -6.015% and -3.077% and -3.358%
same,Change in body weight (%) PA1443 PDX,"[1]; 20 mg/kg (BID), time 27, individual mice, 20 mg/kg",-7.28% and -7.5188% and -11.5385% and -10.8209%
same,Change in body weight (%) PA1443 PDX,"[1]; 20 mg/kg (BID), time 30, individual mice, 20 mg/kg",-2.8% and -0.7634% and -2.823% and -9.35% and -5.747% and -9.023% and -5% and -5.224%
same,Change in body weight (%) PA1443 PDX,"[1]; 20 mg/kg (BID), time 34, individual mice, 20 mg/kg",-5.2% and -8.015% and -0.4032% and -6.911% and -4.5977% and -10.5263% and -3.462% and -3.358%
same,Change in body weight (%) PA1443 PDX,"[1]; 20 mg/kg (BID), time 37, individual mice, 20 mg/kg",-7.2% and -6.107% and -1.21% and -9.35% and -10.728% and -14.6617% and -1.154% and -5.97%
same,Change in body weight (%) PA1443 PDX,"[1]; 20 mg/kg (BID), time 41, individual mice, 20 mg/kg",-3.2% and -3.817% and -1.21% and -9.7561% and -5.747% and -9.774% and 1.154% and -6.716%
same,Change in body weight (%) PA1443 PDX,"[1]; 20 mg/kg (BID), time 44, individual mice, 20 mg/kg",-2.4% and -2.672% and -4.435% and -6.911% and -4.5977% and -3.7594% and 6.154% and -4.851%
same,Change in body weight (%) PA1443 PDX,"[1]; 20 mg/kg (BID), time 48, individual mice, 20 mg/kg",-4.4% and -0.7634% and -2.823% and -6.911% and -6.13% and -10.5263% and -5.769% and -7.836%
same,"tumour volume, individual mice","[2]; 1mg/kg (BID), day 0",92.6471 and 90.2498 and 109.339 and 149.891 and 68.8608 and 81.9745 and 123.088
same,"tumour volume, individual mice","[2]; 1mg/kg (BID), day 3",125.358 and 104.379 and 172.798 and 154.176 and 125.714 and 98.4324 and 124.276
same,"tumour volume, individual mice","[2]; 1mg/kg (BID), day 7",200.621 and 143.492 and 193.492 and 211.953 and 203.152 and 155.672 and 208.83
same,"tumour volume, individual mice","[2]; 1mg/kg (BID), day 9",223.137 and 154.086 and 337.43 and 251.635 and 193.648 and 180.53 and 218.005
same,"tumour volume, individual mice","[2]; 1mg/kg (BID), day 11",194.265 and 143.752 and 231.251 and 338.458 and 262.902 and 236.002 and 328.889
same,"tumour volume, individual mice","[2]; 1mg/kg (BID), day 21",775.036
same,"tumour volume, individual mice","[2]; 1mg/kg (BID), day 23",503.911 and 523.026 and 480.084 and 624.485 and 407.476 and 392.541 and 615.788
same,"tumour volume, individual mice","[2]; 7.5mg/kg (BID), day 0",129.177 and 108.667 and 77.2746 and 81.8339 and 84.4147 and 69.6566 and 93.7673
same,"tumour volume, individual mice","[2]; 7.5mg/kg (BID), day 3",161.59 and 126.605 and 133.423 and 122.534 and 156.538 and 102.529 and 113.571
same,"tumour volume, individual mice","[2]; 7.5mg/kg (BID), day 7",207.751 and 177.648 and 163.58 and 169.756 and 150.25 and 85.9794 and 170.047
same,"tumour volume, individual mice","[2]; 7.5mg/kg (BID), day 9",214.255 and 151.142 and 171.225 and 165.402 and 177.587 and 120.432 and 155.548
same,"tumour volume, individual mice","[2]; 7.5mg/kg (BID), day 11",215.875 and 313.281 and 187.666 and 153.934 and 188.63 and 107.074 and 161.675
same,"tumour volume, individual mice","[2]; 7.5mg/kg (BID), day 21",246.981 and 647.593 and 223.015 and 129.565 and 320.873 and 169.097 and 210.974
same,"tumour volume, individual mice","[2]; 7.5mg/kg (BID), day 23",291.041 and 499.105 and 191.798 and 199.034 and 384.082 and 149.022 and 232.5
same,"tumour volume, individual mice","[2]; 20mg/kg (BID), day 0",81.7058 and 97.0092 and 112.17 and 169.068 and 90.1647 and 98.1431 and 86.3574 and 66.9197
same,"tumour volume, individual mice","[2]; 20mg/kg (BID), day 3",140.722 and 115.997 and 158.945 and 302.152 and 97.2429 and 116.597 and 175.702 and 110.491
same,"tumour volume, individual mice","[2]; 20mg/kg (BID), day 7",177.544 and 135.884 and 217.924 and 207.405 and 169.547 and 223.631 and 201.135 and 82.0663
same,"tumour volume, individual mice","[2]; 20mg/kg (BID), day 9",138.767 and 157.124 and 198.336 and 279.028 and 183.519 and 128.599 and 206.388 and 181.897
same,"tumour volume, individual mice","[2]; 20mg/kg (BID), day 11",157.401 and 103.731 and 171.317 and 358.522 and 193.538 and 121.481 and 259.637 and 84.7721
same,"tumour volume, individual mice","[2]; 20mg/kg (BID), day 21",169.574 and 153.235 and 202.602 and 547.272 and 204.706 and 150.482 and 155.016 and 59.9919
same,"tumour volume, individual mice","[2]; 20mg/kg (BID), day 23",205.906 and 201.206 and 240.027 and 326.226 and 250.311 and 76.6568 and 268.223 and 192.047
same,SUM149PT tumor volume,"[3]; 7.5mg/kg (BID), time 11",358.158 mm3 and 663.416 mm3 and 546.465 mm3 and 308.22 mm3
same,SUM149PT tumor volume,"[3]; 7.5mg/kg (BID), time 13",295.4 mm3 and 663.261 mm3 and 574.941 mm3 and 343.235 mm3 and 525.236 mm3 and 880.403 mm3 and 780.601 mm3 and 208.875 mm3
same,SUM149PT tumor volume,"[3]; 20mg/kg (BID), time 11",410.171 mm3 and 257.301 mm3 and 441.769 mm3 and 334.466 mm3 and 393.657 mm3 and 419.579 mm3 and 459.601 mm3 and 325.008 mm3
same,SUM149PT tumor volume,"[3]; 20mg/kg (BID), time 13",555.779 mm3 and 249.046 mm3 and 462.32 mm3 and 445.05 mm3 and 595.457 mm3 and 428.012 mm3 and 538.727 mm3 and 315.395 mm3
